In paper PMC11090508:

Biological target: T1, FLAG-BirA*-IBTK (inhibitor of Bruton's tyrosine kinase) (UniProt Q9P2D0)
T1 sequence: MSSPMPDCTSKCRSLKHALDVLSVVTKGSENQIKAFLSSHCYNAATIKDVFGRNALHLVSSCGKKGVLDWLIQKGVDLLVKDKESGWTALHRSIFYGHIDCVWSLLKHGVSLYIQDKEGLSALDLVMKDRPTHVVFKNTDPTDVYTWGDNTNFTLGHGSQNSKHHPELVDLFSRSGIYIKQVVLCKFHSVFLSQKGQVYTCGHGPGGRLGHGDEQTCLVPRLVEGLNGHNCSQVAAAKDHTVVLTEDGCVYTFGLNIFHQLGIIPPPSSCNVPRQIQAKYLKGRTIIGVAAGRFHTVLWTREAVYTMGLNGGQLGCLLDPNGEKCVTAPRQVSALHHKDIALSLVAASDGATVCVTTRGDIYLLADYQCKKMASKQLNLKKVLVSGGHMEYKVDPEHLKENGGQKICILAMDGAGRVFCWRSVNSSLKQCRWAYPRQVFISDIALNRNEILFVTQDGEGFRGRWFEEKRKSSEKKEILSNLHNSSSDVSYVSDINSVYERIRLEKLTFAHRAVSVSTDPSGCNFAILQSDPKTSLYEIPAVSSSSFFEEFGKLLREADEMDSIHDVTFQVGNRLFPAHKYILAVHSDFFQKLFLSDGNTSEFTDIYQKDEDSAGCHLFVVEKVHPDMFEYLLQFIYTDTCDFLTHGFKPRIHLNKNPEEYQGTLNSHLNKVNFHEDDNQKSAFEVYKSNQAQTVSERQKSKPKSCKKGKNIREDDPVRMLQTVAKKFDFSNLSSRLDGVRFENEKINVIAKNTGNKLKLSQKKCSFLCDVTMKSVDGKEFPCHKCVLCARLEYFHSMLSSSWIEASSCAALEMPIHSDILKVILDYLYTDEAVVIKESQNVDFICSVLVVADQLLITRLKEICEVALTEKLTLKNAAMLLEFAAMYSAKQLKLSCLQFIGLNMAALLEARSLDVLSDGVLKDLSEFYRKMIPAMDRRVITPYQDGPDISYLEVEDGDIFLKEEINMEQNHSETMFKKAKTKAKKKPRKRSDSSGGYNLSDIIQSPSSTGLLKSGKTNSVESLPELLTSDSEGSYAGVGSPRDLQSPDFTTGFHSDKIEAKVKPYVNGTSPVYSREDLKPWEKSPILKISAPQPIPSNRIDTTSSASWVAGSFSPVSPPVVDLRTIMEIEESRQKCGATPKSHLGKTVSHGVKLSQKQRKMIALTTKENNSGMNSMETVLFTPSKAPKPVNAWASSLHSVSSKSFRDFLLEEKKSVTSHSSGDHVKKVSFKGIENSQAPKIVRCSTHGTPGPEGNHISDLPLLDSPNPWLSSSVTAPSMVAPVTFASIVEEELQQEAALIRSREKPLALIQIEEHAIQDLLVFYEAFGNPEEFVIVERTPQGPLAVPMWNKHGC
Test: co-IP; FLAG-BirA*-IBTK Tet-on Flp-In T-REx 293 cells with/without DOX (10 ng/ml, 12 hr); anti-FLAG co-IP, Western blot of endogenous proteins (Figure 1G)

Question: With “eIF4G, endogenous (human (endogenous in Flp-In T-REx 293))” as the substance, how does the binding read?
Answer: no binding

These are yes or no findings as the source states them, for the method shown. In cells and extracts the contact can be indirect. Where a sequence is shown, tags or fusion partners need not be part of it.
